PubChem BioAssay AID1259275 | Sanger Institute, 2017
In all, the deposit lists 794 reagents; below is a random part of them. In the full data, 13 (1.6%) got an active call. 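Calls mark knock-downs lethal by themselves, not drug synergy; drugs went in a day after transfection, with DMSO as vehicle.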 Viability is capped at 1. The record does not give: the amount of reagent, the time to read-out.

Aim: 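Kinome and custom colorectal gene library screened for lethal knock-downs and drug partners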 (primary screen)
Cell system: COLO320HSR human colorectal cancer cells
Reagent: siRNA pool against human genes
Conditions: anchor drug added one day after transfection: BYL719 at 1 µM, cetuximab at 5 µg/ml or trametinib at 10 nM; DMSO as vehicle arm
Detection: 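Viability averaged over replicates as a fraction of the non-targeting pool, a robust z-score for knock-down alone, and synergy scores with BYL719 (1 µM), cetuximab (5 µg/ml) or trametinib (10 nM)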
Direction: robust z-score, siRNA alone: higher = more viable cells; strongly negative means essential; viability, knock-down alone (DMSO): higher = more viable cells; synergy score with BYL719 and synergy score with cetuximab and synergy score with trametinib: higher = stronger combined killing with drug
Hit rule: 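a gene is called essential when its robust z-score without drug falls below -3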
Calls: active = essential (siRNA alone); inactive = no change (siRNA alone)

The opening 2 entries as a preview:
target gene | robust z-score, siRNA alone | viability, knock-down alone (DMSO) (fraction of control) | synergy score with BYL719 | synergy score with cetuximab | synergy score with trametinib | activity call
ALDH18A1 | 0.488 | 0.978 | -0.0525 | -0.0294 | -0.0469 | inactive
RPS6KB2 | 0.726 | 1 | -0.0301 | -0.0893 | -0.0259 | inactive

Main list, from the first entry:
target gene | robust z-score, siRNA alone | viability, knock-down alone (DMSO) (fraction of control) | synergy score with BYL719 | synergy score with cetuximab | synergy score with trametinib | activity call
ALDH18A1 | 0.488 | 0.978 | -0.0525 | -0.0294 | -0.0469 | inactive
RPS6KB2 | 0.726 | 1 | -0.0301 | -0.0893 | -0.0259 | inactive
STK26 | -0.198 | 0.917 | -0.14 | -0.127 | 0.012 | inactive
GRK3 | 0.726 | 1 | -0.101 | -0.0893 | -0.0259 | inactive
IPPK | -0.655 | 0.875 | -0.0883 | 0.0504 | -0.0584 | inactive
CTNNB1 | -3.12 | 0.653 | -0.0512 | -0.2 | -0.0916 | active
ITPKA | 0.726 | 1 | 0.0229 | -0.0403 | -0.0199 | inactive
DCLK2 | -0.843 | 0.858 | -0.215 | -0.127 | -0.107 | inactive
CAMK2D | 0.726 | 1 | -0.112 | -0.0893 | -0.0259 | inactive
IGF2R | 0.378 | 0.969 | -0.11 | -0.0368 | -0.0566 | inactive
IKBKB | -0.664 | 0.875 | -0.035 | -0.141 | -0.11 | inactive
SRPK3 | 0.726 | 1 | -0.0961 | -0.0893 | -0.0259 | inactive
YES1 | 0.726 | 1 | -0.21 | -0.002 | -0.0189 | inactive
PXK | 0.726 | 1 | -0.151 | -0.0256 | -0.0113 | inactive
MAP3K11 | 0.242 | 0.956 | -0.194 | -0.125 | -0.0535 | inactive
VRK2 | -1.01 | 0.843 | -0.143 | -0.128 | -0.0704 | inactive
PKM | -2.44 | 0.715 | -0.0833 | -0.168 | -0.0997 | inactive
RPS6KA5 | -1.2 | 0.826 | -0.176 | -0.0326 | 0.0395 | inactive
CUL1 | -0.117 | 0.924 | -0.249 | -0.11 | -0.1 | inactive
STK32B | -0.77 | 0.865 | -0.0676 | -0.161 | -0.00462 | inactive
ALK | 0.726 | 1 | -0.168 | -0.0893 | -0.0259 | inactive
RBM10 | -0.159 | 0.92 | -0.0207 | 0.0135 | 0.191 | inactive
RPS6KA2 | -0.672 | 0.874 | 0.00118 | -0.0879 | 0.0739 | inactive
CAMKV | -1.22 | 0.824 | -0.145 | -0.223 | -0.161 | inactive
MERTK | 0.726 | 1 | -0.296 | -0.0893 | -0.0259 | inactive
PIM3 | 0.618 | 0.99 | 0.0182 | -0.0757 | -0.00491 | inactive
PHKA2 | -1.14 | 0.831 | -0.118 | -0.0959 | -0.172 | inactive
RAD21 | -1.16 | 0.83 | -0.0861 | -0.0711 | -0.0498 | inactive
MARK2 | -0.134 | 0.922 | -0.163 | -0.0123 | -0.0286 | inactive
PASK | -1.04 | 0.84 | -0.0566 | -0.159 | -0.116 | inactive
ELP1 | -0.175 | 0.919 | -0.137 | -0.0288 | -0.105 | inactive
FGR | -0.982 | 0.846 | -0.174 | -0.167 | -0.0615 | inactive
DBF4 | 0.726 | 1 | -0.236 | -0.0893 | -0.0259 | inactive
MAPK14 | -1.04 | 0.841 | -0.00349 | 0.00345 | 0.0689 | inactive
MAPK3 | -1.23 | 0.823 | -0.168 | -0.13 | -0.162 | inactive
AGK | 0.726 | 1 | -0.222 | -0.0893 | -0.0259 | inactive
CDKL5 | 0.726 | 1 | -0.226 | -0.0893 | 0.0148 | inactive
NR4A2 | 0.347 | 0.966 | -0.0791 | -0.121 | 0.126 | inactive
PIP5K1A | -1.81 | 0.771 | -0.0477 | -0.0872 | -0.00336 | inactive
CDK13 | 0.726 | 1 | -0.296 | -0.0893 | -0.0259 | inactive
TWF1 | 0.726 | 1 | -0.241 | -0.0893 | -0.0259 | inactive
PSTK | 0.726 | 1 | -0.145 | -0.0893 | -0.0259 | inactive
PIK3C2B | -0.0492 | 0.93 | -0.256 | -0.153 | -0.0941 | inactive
CDKN1C | 0.726 | 1 | -0.213 | -0.0893 | -0.0259 | inactive
ULK3 | 0.726 | 1 | -0.155 | -0.0602 | -0.0138 | inactive
LATS1 | 0.277 | 0.959 | -0.114 | -0.126 | -0.0654 | inactive
NPR2 | 0.317 | 0.963 | -0.127 | -0.123 | 0.00921 | inactive
TNK2 | 0.726 | 1 | -0.286 | -0.0893 | -0.0259 | inactive
SPHK1 | -0.489 | 0.89 | -0.159 | -0.16 | -0.124 | inactive
PRKAG1 | 0.726 | 1 | -0.00856 | 0.000204 | 0.00302 | inactive
ZAP70 | 0.726 | 1 | -0.221 | -0.0893 | -0.0259 | inactive
EPHA4 | 0.726 | 1 | -0.131 | -0.0443 | -0.011 | inactive
IP6K1 | 0.528 | 0.982 | -0.148 | -0.106 | -0.0433 | inactive
GSK3A | -0.41 | 0.897 | -0.147 | -0.136 | -0.0693 | inactive
MAP4K1 | 0.726 | 1 | -0.0334 | -0.0665 | 0.0409 | inactive
PRKAB2 | 0.156 | 0.949 | 0.018 | 0.0426 | 0.0851 | inactive
DDR2 | 0.719 | 0.999 | -0.0893 | -0.0899 | -0.0266 | inactive
PRKCB | -0.942 | 0.849 | -0.337 | -0.226 | -0.0959 | inactive
BMAL1 | -0.241 | 0.913 | -0.0828 | -0.169 | -0.0547 | inactive
PFKL | 0.726 | 1 | -0.296 | -0.0893 | 0.0264 | inactive
PTK6 | 0.726 | 1 | -0.0419 | -0.0893 | 0.0231 | inactive
TRPM6 | 0.726 | 1 | -0.18 | -0.0893 | -0.0259 | inactive
MET | 0.726 | 1 | -0.099 | -0.0893 | -0.0259 | inactive
